{"sequences": {"note": "Protein sequences, listed by entry. Tags and fused reporters are not part of them.", "UniProt P14416, whole entry, looked up": "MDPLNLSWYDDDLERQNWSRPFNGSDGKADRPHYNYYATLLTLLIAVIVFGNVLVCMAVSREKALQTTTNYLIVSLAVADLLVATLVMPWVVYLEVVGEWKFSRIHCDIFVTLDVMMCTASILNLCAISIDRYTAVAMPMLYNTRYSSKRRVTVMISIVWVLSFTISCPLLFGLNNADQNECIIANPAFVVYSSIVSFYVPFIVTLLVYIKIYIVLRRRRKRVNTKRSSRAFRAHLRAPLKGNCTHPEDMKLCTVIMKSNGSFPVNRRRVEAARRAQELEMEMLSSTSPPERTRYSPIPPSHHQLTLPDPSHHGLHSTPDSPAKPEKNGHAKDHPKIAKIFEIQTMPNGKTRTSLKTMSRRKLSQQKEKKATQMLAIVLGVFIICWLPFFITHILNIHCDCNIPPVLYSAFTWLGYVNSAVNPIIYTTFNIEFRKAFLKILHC"}, "source": "PubChem BioAssay (Tox21)", "note": "The inconclusive results got no clear call from the source; some entries with a clear call stand among them for comparison. For some of these results: Potencies of inconclusive entries are doubtful fits and often do not repeat. Active and inactive are the calls of the source. Unless noted, calls follow the shape of the full dose curve. % is scaled to controls: 0 for no effect and ±100 for the full control effect."}
{"target": "Beta-2 adrenergic receptor (Homo sapiens) (UniProt P07550)", "assay": "Adrenergic beta2 receptor (ADRB2) small molecule agonists, cell-based qHTS assay (AID 1963593); also: potency is read from the fitted curve at half-maximal effect;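 as to activation: CHO cells stably overexpressing human ADRB2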", "settings": "CHO-ADRB2 cells, cAMP HTRF, 30 min; activation: at 92.4 µM (top of the series) unless noted", "method_in_brief": "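CHO cells stably over-expressing ADRB2 were plated overnight at 37C, then dosed with compounds plus a stimulation mix containing 100uM IBMX and 25uM Ro-20-1724 for 0.5hr at room temperature. cAMP was measured by HTRF competition, 1hr.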"}
{"molecule": "Cc1ccc(-n2nc(C(C)(C)C)cc2NC(=O)Nc2ccc(OCCN3CCOCC3)c3ccccc23)cc1", "activation": "inconclusive: 15.6% [at 42.5 µM]"}
{"molecule": "CCOC(=O)OCC/C(SC(=O)OCC)=C(\\C)N(C=O)Cc1cnc(C)nc1N", "Potency": "inactive"}
{"molecule": "CCCCC1CCCCC(=O)O1", "note": "(stereo not drawn)", "Potency": "inactive"}
{"molecule": "CCCCCCCCCCC(CO)CCCCCCCC", "note": "(stereo not drawn)", "Potency": "inconclusive: 5.45 µM [inhibitor, single point]", "activation": "inconclusive: 25.4% [at 42.5 µM]"}
{"molecule": "O=C(O)c1ccc(S(=O)(=O)N(Cl)Cl)cc1", "activation": "inconclusive: 6.46%"}
{"molecule": "CCC(Cc1ccccc1)(C(=O)c1ccc(N2CCOCC2)cc1)N(C)C", "note": "(stereo not drawn)", "Potency": "inactive"}
{"molecule": "COc1cc(NC(=O)CC(C)=O)c(OC)cc1Cl", "activation": "inconclusive: -33.2%", "Potency": "inconclusive: 43.5 µM [inhibitor]"}
{"molecule": "CCC(O)OCCCOC", "note": "(stereo not drawn)", "activation": "inconclusive: 72.1%"}
{"molecule": "COc1cc(C=O)ccc1OC(=O)C(C)C", "Potency": "inactive"}
{"molecule": "C/C(=C\\C(C)CC(C)CC(C)C)C1CC(=O)OC1=O", "note": "(stereo not drawn)", "activation": "inconclusive: 37.4%"}
{"molecule": "CCOC(=O)N1CCC(n2c(=O)[nH]c3cc(Cl)ccc32)CC1", "activation": "inconclusive: -31.5% [at 42.5 µM]"}
{"molecule": "O=C(O)Cc1csc(-c2ccc(Cl)cc2)n1", "Potency": "inconclusive: 5.96 µM [inhibitor, full curve]"}
{"molecule": "CCOC(=O)C1=NN(c2ccc(Cl)cc2Cl)C(C)(C(=O)OCC)C1", "note": "(stereo not drawn)", "Potency": "inconclusive: 5.45 µM [inhibitor, partial curve, poor fit]"}
{"molecule": "CCN(CC)C(=O)C1CN2CCc3cc(OC)c(OC)cc3C2CC1OC(C)=O", "note": "(stereo not drawn)", "Potency": "inactive"}
{"molecule": "CC(=O)CC(C)(C)O", "Potency": "inconclusive: 15.6 µM [inhibitor, single point]", "activation": "inconclusive: -4.47%"}
{"molecule": "C=CCc1ccc(OC)c(OC)c1", "activation": "inconclusive: 23.7%", "Potency": "inconclusive: 19.5 µM [inhibitor, partial curve, poor fit]"}
{"molecule": "Cc1cc(O)c(C)c(C)c1O", "Potency": "inconclusive: 33.5 µM [activator, single point]"}
{"molecule": "O=C(OCCCCCCOC(=O)c1ccccc1)c1ccccc1", "activation": "inconclusive: 2.63%"}
{"molecule": "Clc1nnc(Cl)c2ccccc12", "activation": "inconclusive: -26.5%"}
{"molecule": "CC(C)OC(=O)c1ccccc1", "Potency": "inconclusive: 6.44 µM [inhibitor, full curve]"}
{"molecule": "COc1cc(C(=O)OC(COCCC(C)C)CN2CCOCC2)cc(OC)c1OC", "note": "(stereo not drawn)", "Potency": "inconclusive: 11.9 µM [inhibitor]"}
{"molecule": "CC(C)CCOC(=O)CC(C)C", "Potency": "inactive"}
{"molecule": "Cc1ccc(/C(=C\\CN2CCCC2)c2ccccn2)cc1", "activation": "inconclusive: 21.2%"}
{"molecule": "CCCCCCc1ccc(N)cc1", "Potency": "inactive"}
{"molecule": "CCC(=O)OC(=O)CC", "activation": "inconclusive: -65%"}
{"molecule": "CCOC(=O)c1ccc(I)cc1", "Potency": "inconclusive: 5.5 µM [activator, full curve, poor fit]"}
{"molecule": "CO[C@H]1C=CO[C@@]2(C)Oc3c(C)c(O)c4c(O)c(cc(O)c4c3C2=O)NC(=O)/C(C)=C\\C=C/[C@H](C)[C@H](O)[C@@H](C)[C@@H](O)[C@@H](C)[C@H](OC(C)=O)[C@@H]1C", "activation": "inconclusive: 5.29%"}
{"molecule": "Nc1ccc(S(=O)(=O)NCc2ccccc2)cc1", "Potency": "inactive"}
{"target": "D(2) dopamine receptor (Homo sapiens) (UniProt P14416)", "assay": "Dopamine D2 receptor (DRD2) small molecule agonists, cell-based qHTS assay (AID 1963594); also: nearly all actives have a fitted effect of over 35% in size", "settings": "HEK293-DRD2 cAMP HTRF, agonist mode, 30 min; activation: at 92.4 µM (top of the series) unless noted", "method_in_brief": "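cAMP accumulation in DRD2-HEK293 cells measured by HTRF after 1 h detection; compounds added 10 min before NKH477 (200nM […]) forskolin-analogue stimulation, 30 min at room temperature, with Ro20-1724 present at 0.1 mM final.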"}
{"molecule": "CCC(O)OCCCOC", "note": "(stereo not drawn)", "activation": "inconclusive: -17.9%"}
{"molecule": "C/C(=C\\C(C)CC(C)CC(C)C)C1CC(=O)OC1=O", "note": "(stereo not drawn)", "Potency": "inactive"}
{"molecule": "CC1CC(=O)CC(C)(C)C1", "note": "(stereo not drawn)", "Potency": "inactive"}
{"target": "D(2) dopamine receptor (Homo sapiens) (UniProt P14416)", "assay": "Dopamine D2 receptor (DRD2) small molecule antagonists, cell-based qHTS assay (AID 1963595; active = well fitted inhibition curve with a large enough effect in the signal ratio in the repeat runs, with a control signal flat; inconclusive = weak or mixed curves, or effect the other way; the % refers to the signal ratio; also: potency is read from the fitted curve at half-maximal effect)", "settings": "HEK293-DRD2 cAMP HTRF antagonist mode; activity change, negative = inhibition: at 92.4 µM (top of the series) unless noted", "method_in_brief": "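DRD2-HEK293; 0.1 mM Ro20-1724; cpd 10 min RT; NKH477 200 nM + quinpirole 12 nM, 30 min RT; HTRF cAMP (cAMP-d2/anti-cAMP cryptate), 665/620 nm ratio after 1 h.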"}
{"molecule": "CCCCCCCC/C=C\\CCCCCCCC(=O)OC", "Potency": "inactive"}
{"molecule": "CCOC(=O)OCC/C(SC(=O)OCC)=C(\\C)N(C=O)Cc1cnc(C)nc1N", "activity change, negative = inhibition": "inconclusive: 6.26% [at 42.5 µM]"}
{"molecule": "CCC(Cc1ccccc1)(C(=O)c1ccc(N2CCOCC2)cc1)N(C)C", "note": "(stereo not drawn)", "activity change, negative = inhibition": "inconclusive: -19.5%"}
{"molecule": "COc1cc(NC(=O)CC(C)=O)c(OC)cc1Cl", "Potency": "inactive"}
{"molecule": "CCOC(=O)N1CCC(n2c(=O)[nH]c3cc(Cl)ccc32)CC1", "activity change, negative = inhibition": "inconclusive: -22.8% [at 42.5 µM]"}
{"molecule": "C[C@@H]1O[C@@H](OC[C@H]2O[C@@H](Oc3c(-c4ccc(O)c(O)c4)oc4cc(O)cc(O)c4c3=O)[C@H](O)[C@@H](O)[C@@H]2O)[C@H](O)[C@H](O)[C@H]1O", "Potency": "inactive"}
{"molecule": "CO[C@H]1C=CO[C@@]2(C)Oc3c(C)c(O)c4c(O)c(cc(O)c4c3C2=O)NC(=O)/C(C)=C\\C=C/[C@H](C)[C@H](O)[C@@H](C)[C@@H](O)[C@@H](C)[C@H](OC(C)=O)[C@@H]1C", "Potency": "inconclusive: 69.1 µM [falling, partial curve, poor fit]"}
{"molecule": "Nc1ccc(S(=O)(=O)NCc2ccccc2)cc1", "activity change, negative = inhibition": "inconclusive: -1.37% [at 42.5 µM]"}
